Source: paper PMC3466170
No constants are given. Whether binding was seen depends on the method and setting. Some binding calls cover weakened binding; strength is not graded here.

Target: T1, outer membrane porin OprF (PA1777) (P. aeruginosa (endogenous in PAO1 and PATI2)) (UniProt P13794)
T1 sequence: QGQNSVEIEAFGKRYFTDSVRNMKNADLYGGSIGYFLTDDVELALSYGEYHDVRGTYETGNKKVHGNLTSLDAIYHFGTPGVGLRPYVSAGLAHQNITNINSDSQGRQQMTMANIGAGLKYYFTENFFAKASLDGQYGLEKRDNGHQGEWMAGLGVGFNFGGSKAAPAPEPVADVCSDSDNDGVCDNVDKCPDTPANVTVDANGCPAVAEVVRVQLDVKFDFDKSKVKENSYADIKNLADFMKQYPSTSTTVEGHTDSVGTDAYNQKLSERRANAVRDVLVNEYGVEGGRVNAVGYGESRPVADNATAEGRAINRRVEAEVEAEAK
Assay: far-Western, overlay or dot blot; data not shown; OprF eluted from the His-LecB column transferred to a blotting membrane (PVDF) and treated with 1 µg/ml peroxidase-labelled LecB; both purified

In the case of “peroxidase labelled LecB (from UniProt Q9HYN5 1-115)”, the binding was “binds”.
